Data on 82 compounds can be found in the supplement of paper PMC9744312.

Counter-ions that a name gives are not always drawn. The list shows a part of the results. Single values of this set are uncertain.

The subject of this experiment is Peyronie's disease tunica albuginea primary fibroblasts. The experiment in a line: inhibition of TGF-beta1-induced alpha-SMA expression (myofibroblast transformation), relative to TGF-beta1-only and untreated controls; higher = stronger inhibition of myofibroblast transformation. The conditions noted are these: 10 µM; TGF-beta1 10 ng/mL; 72 h.
In the case of `NC(=O)CN1CC(O)CC1=O` (configuration not stated) [Oxiracetam], the “inhibition of TGF-beta1-induced alpha-SMA expression” value (“inhibition” below) came out at 4.67%. `C[CH2][Hg][S]c1ccccc1C(=O)[O-].[Na+]` [Thimerosal]: the “inhibition” value is > 100%. Next, `O=C(O[C@H]1C[C@H]2CC[C@@H](C1)[N+]21CCCC1)C(O)(c1ccccc1)c1ccccc1` [Trospium chloride]: 9.45%; `COc1ccc(C(=O)N2CCCC2=O)cc1` [Aniracetam]: 22%; `CC[C@@H](C(N)=O)N1CCCC1=O` [Levetiracetam]: 10.4%. For `O=C(O)CCCc1ccc(N(CCCl)CCCl)cc1` [Chloroambucil] the value was -24.5%; for `Nc1ccncc1` [4-Aminopyridine], 11.7%; for `CCC[C@@H]1CC(=O)N([C@@H](CC)C(N)=O)C1` [Brivaracetam], -8.96%.

Consider `Cc1ncc(CNC(=O)N(CCCl)N=O)c(N)n1` [Nimustine Hydrochloride], for which the “inhibition” value amounted to 8.31%.

For the compound `CCCN1C[C@H](CSC)C[C@@H]2c3cccc4[nH]cc(c34)C[C@H]21` [Pergolide Mesylate], the “inhibition” value was -1.83%. For `CC(=O)OC1CN2CCC1CC2` (configuration not stated) [Aceclidine HCl] the value was 11.6%; for `C[N+](C)(C)CCCCCCCCCC[N+](C)(C)C` [Decamethonium Bromide], 7.66%.

Regarding `CN1c2ccccc2C(NCCCCCCC(=O)O)c2ccc(Cl)cc2S1(=O)=O` (configuration not stated) [Tianeptine sodium], the “inhibition” value worked out at 4.44%. With `CN1c2ccccc2C(NCCCCCCC(=O)O)c2ccc(Cl)cc2S1(=O)=O` (configuration not stated) [Tianeptine], the “inhibition” value stood at 14.8%. For the compound `NCCc1cc(O)c(O)cc1O` [Oxidopamine (hydrobromide)], the “inhibition” value was determined as 2.85%.

As for `Nc1nc(N)nc(NC2CC2)n1` [Cyromazine], the “inhibition” value worked out at 11.1%. Next, `CN1[C@@H]2CC[C@H]1C[C@@H](OC(=O)[C@H](CO)c1ccccc1)C2` [Hyoscyamine]: 39.4%. Next, `O=[N+]([O-])O[C@@H]1CO[C@H]2[C@@H]1OC[C@@H]2O` [Isosorbide Mononitrate]: 22.8%; `N[C@@H](Cc1ccc(N(CCCl)CCCl)cc1)C(=O)O` [Melphalan]: 12.6%. For `CCCCCCC(=O)O[C@H]1CC[C@H]2[C@@H]3CCC4=CC(=O)CC[C@]4(C)[C@H]3CC[C@]12C` [Testosterone Enanthate] the value was 31%; for `CC(C)N(CCC(C(N)=O)(c1ccccc1)c1ccccn1)C(C)C` (configuration not stated) [Disopyramide], -13.8%; for `CC(C)N(CCC(C(N)=O)(c1ccccc1)c1ccccn1)C(C)C` (configuration not stated) [Disopyramide Phosphate], 16.2%. Take `N=C(N)NN` [Aminoguanidine hydrochloride]: the “inhibition” value is -0.985%. Next, `COc1ccc(CN2CCNCC2)c(OC)c1OC` [Trimetazidine dihydrochloride]: -31.4%.

As for `CC[C@H]1CN2CC[C@H]1C[C@@H]2[C@@H](O)c1ccnc2ccc(OC)cc12` [Hydroquinidine], the “inhibition” value is 28.1%. Next, `Cc1cc(O)ccc1Cl` [Chlorocresol]: -11.5%; `O=c1[nH]c2ccccc2n1CCCN1CCC(n2c(=O)[nH]c3cc(Cl)ccc32)CC1` [Domperidone]: 9.77%; `C=CC[C@]1(O)CC[C@H]2[C@@H]3CCC4=CC(=O)CCC4=C3C=C[C@@]21C` [Altrenogest]: 32.5%. Next, `Cc1ccccc1-n1c(CF)nc2ccc(N)cc2c1=O` [Afloqualone]: 12.4%. Consider `C/C(=C\c1csc(C)n1)[C@@H]1C[C@@H]2O[C@]2(C)CCC[C@H](C)[C@H](O)[C@@H](C)C(=O)C(C)(C)[C@@H](O)CC(=O)O1` [Patupilone (EPO906, Epothilone B)], for which the “inhibition” value is 95.6%.

For the compound `COc1ccc2c(c1)[C@]13CCCC[C@@H]1[C@H](C2)N(C)CC3` [Dextromethorphan hydrobromide hydrate], the “inhibition” value was 34.1%.

Take `Cc1cccc(C(C)c2c[nH]cn2)c1C` (configuration not stated) [Medetomidine HCl]: the “inhibition” value was 13.9%. Next, `Cc1cccc(C)c1NC1=NCCCS1` [Xylazine HCl]: 1.87%. Next, `COc1cc2c(cc1OC)C1CC(=O)C(CC(C)C)CN1CC2` (configuration not stated) [Tetrabenazine (Xenazine)]: -0.369%. Next, `CN1C(=O)COc2c(C(=O)NC3CN4CCC3CC4)cc(Cl)cc21` (configuration not stated) [Azasetron HCl]: 13.5%. On to `Clc1ccc(C(OCCN2CCCCC2)c2ccccc2)cc1` (configuration not stated) [Cloperastine hydrochloride], for which the “inhibition” value is 20.4%.

Regarding `O=C(O[C@H]1C[N+]2(CCCOc3ccccc3)CCC1CC2)C(O)(c1cccs1)c1cccs1` [Aclidinium Bromide], the “inhibition” value came out at 1.88%.

Turning to `NC(=O)CN1CCCC1=O` [Piracetam], the “inhibition” value turned out to be 47%.

For the compound `O=P1(NCCCl)OCCCN1CCCl` (configuration not stated) [Ifosfamide], the “inhibition” value is -18.5%.

As to `Cc1cccc([C@H](C)c2c[nH]cn2)c1C` [Dexmedetomidine HCl], the “inhibition” value was found to be 5.84%. Take `Cc1cccc([C@H](C)c2c[nH]cn2)c1C` [Dexmedetomidine]: the “inhibition” value was found to be 13.4%. For `C#C[C@]1(O)C=C[C@H]2[C@@H]3CCC4=CC(=O)CC[C@@H]4[C@H]3CC[C@@]21CC` [Gestodene] the value was 11.3%; for `C[N+]12CCC(CC1)C(OC(=O)C(O)(c1ccccc1)c1ccccc1)C2` (configuration not stated) [Clidinium Bromide], 0.902%. Next, `NCCc1c[nH]c2ccc(O)cc12` [Serotonin HCl]: 12.8%.

Turning to `CCC(COC(=O)c1cc(OC)c(OC)c(OC)c1)(c1ccccc1)N(C)C` (configuration not stated) [Trimebutine], the “inhibition” value is -8.71%. For the compound `CCNC1(c2cccs2)CCCCC1=O` (configuration not stated) [Tiletamine Hydrochloride], the “inhibition” value is 23.1%. For the compound `CCC1(c2cccc(O)c2)CCCCN(C)C1` (configuration not stated) [Meptazinol HCl], the “inhibition” value stood at 18%.

Turning to `CC[C@H]1[C@@H]2C[C@H]3[C@@H]4N(C)c5ccccc5[C@]45C[C@@H]([C@@H]2[C@H]5O)N3[C@@H]1O` [Ajmaline], the “inhibition” value came to 6.76%. Next, `C[C@@H]1CC[C@H]2[C@@H](C)C(=O)O[C@@H]3O[C@@]4(C)CC[C@@H]1[C@]32OO4` [Artemisinin]: 51.4%. For `COc1cc2c(cc1OC)[C@@]13CCN4CC5=CCO[C@H]6CC(=O)N2[C@H]1[C@H]6[C@H]5C[C@H]43` [Brucine sulfate salt hydrate] the value was 8.67%; for `COC(=O)C1=CCCN(C)C1` [Arecoline HBr], -5.83%; for `CC(C)N(CCNC(=O)CN1CCCC1=O)C(C)C` [Pramiracetam], -3.04%. For `CNCC(=O)c1ccc(O)c(O)c1` [Adrenalone HCl] the value was 19.3%; for `C[C@]12CC[C@H]3[C@@H](CC[C@@]45O[C@@H]4C(O)=C(C#N)C[C@]35C)[C@@H]1CC[C@@H]2O` [Trilostane], 24.7%. Consider `Oc1cc(Cl)ccc1Oc1ccc(Cl)cc1Cl` [Triclosan], for which the “inhibition” value is 16.4%. For `C[C@@H]1O[C@@H](O[C@H]2C[C@@H](O)[C@]3(CO)[C@H]4[C@H](O)C[C@]5(C)[C@@H](C6=CC(=O)OC6)CC[C@]5(O)[C@@H]4CC[C@]3(O)C2)[C@H](O)[C@H](O)[C@H]1O` [Ouabain] the value was > 100%. Next, `NCC(O)c1ccc(O)cc1` (racemic) [(+,-)-Octopamine HCl]: 9.91%; `C[N+]1(C)[C@@H]2C[C@@H](OC(=O)[C@H](CO)c3ccccc3)C[C@H]1[C@@H]1O[C@@H]12` [Methscopolamine]: 45.9%; `CCC1(c2ccc(N)cc2)CCC(=O)NC1=O` (configuration not stated) [Aminoglutethimide]: -2.72%. For `CCN(C)C(=O)Oc1cccc([C@H](C)N(C)C)c1` [Rivastigmine Tartrate] the value was -0.377%. In the case of `CCN(C)C(=O)Oc1cccc([C@H](C)N(C)C)c1` [Rivastigmine], the “inhibition” value was determined as 88.2%. On to `OC(c1ccccc1)(c1ccccc1)C1CCNCC1` [Azacyclonol], for which the “inhibition” value was 34.9%. Next, `C[N+]1(C)CCCC(OC(=O)C(O)(c2ccccc2)c2ccccc2)C1` (configuration not stated) [Mepenzolate Bromide]: 6.19%; `COc1ccc(CN(C(=O)[C@@H](N)Cc2c(C)cc(C(N)=O)cc2C)[C@@H](C)c2ncc(-c3ccccc3)[nH]2)cc1C(=O)O` [Eluxadoline]: 15%; `CCC1(C)CC(=O)NC(=O)C1` [Bemegride]: 17.1%.

Turning to `Oc1ccc(Cl)cc1Cc1cc(Cl)ccc1O` [Dichlorophene], the “inhibition” value came to 55.2%. Next, `C=CN1CCCC1=O.II` [Povidone iodine]: -56.4%; `Cn1c(COP(=O)(NCCBr)NCCBr)cnc1[N+](=O)[O-]` [Evofosfamide (TH-302)]: 22.2%; `CC(=O)NC1CCSC1=O` (configuration not stated) [Citiolone]: 7.21%. In the case of `O=P1(N(CCCl)CCCl)NCCCO1` (configuration not stated) [Cyclophosphamide Monohydrate], the “inhibition” value was 3.03%.

`CN1C(=O)CCS(=O)(=O)C1c1ccc(Cl)cc1` (configuration not stated) [Chlormezanone]: the “inhibition” value stood at 27.5%.

Turning to `O.O.O.O=C([O-])C1[O][Sb]2[O]C(=O)C([O]2)C(C(=O)[O-])[O][Sb]2[O]C(=O)C1[O]2.[K+].[K+]` (configuration not stated) [Antimonyl potassium tartrate trihydrate], the “inhibition” value worked out at 28.9%. Next, `CCCCCCCCCCCCCCCC[n+]1ccccc1` [Cetylpyridinium Chloride]: > 100%; `C=C1C[C@@H]2[C@H](CC[C@]3(C)C(=O)CC[C@@H]23)[C@@]2(C)C=CC(=O)C=C12` [Exemestane]: 37.6%. As to `CNC(C)Cc1ccccc1OC` (configuration not stated) [Methoxyphenamine Hydrochloride], the “inhibition” value was -8.16%.

Turning to `CCN(CC)CCOC(=O)C(O)(c1ccccc1)c1ccccc1` [Benactyzine hydrochloride], the “inhibition” value is -10.3%. Next, `CN(C)C(=O)Oc1cccc([N+](C)(C)C)c1` [Neostigmine Bromide]: -21.6%; `COc1ccc(C(CN(C)C)C2(O)CCCCC2)cc1` (configuration not stated) [Venlafaxine HCl]: 24.7%. For `COc1ccc(C(CN(C)C)C2(O)CCCCC2)cc1` (configuration not stated) [Venlafaxine] the value was 6.56%.

As to `C[C@]12CCC(=O)C(O)=C1CC[C@@H]1[C@@H]2CC[C@]2(C)C(=O)CC[C@@H]12` [Formestane], the “inhibition” value is -16.5%. Consider `CN1[C@@H]2CC[C@H]1C[C@@H](OC(=O)C(CO)c1ccccc1)C2` (some centres not stated) [Atropine sulfate monohydrate], for which the “inhibition” value was found to be 12.4%. For `CN1[C@@H]2CC[C@H]1C[C@@H](OC(=O)C(CO)c1ccccc1)C2` (some centres not stated) [Atropine sulfate] the value was 8.96%.
